Measurements as given in PubChem BioAssay AID1487 (National Center for Advancing Translational Sciences (NCATS), 2009).
Some of the results follow. These are further read-outs of the screen, such as a control signal, another cell line or another target. No call is given for them. Most of these compounds were active or inconclusive in the main read-out, so they are no random draw. Words in brackets tell the shape of the fitted curve; partial curves, single points and poor fits give uncertain potencies.

Assay: qHTS Assay for Modulators of Lamin A Splicing
Settings: HeLa LMNA splicing GFP/RFP minigene ratio, 48 h
Outline: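 Read-out is the ratio of GFP to DsRed2 object intensity, acquired by 488 nm laser-scanning cytometry on HeLa lamin A-EGFP minigene reporter cells. Compound incubation 48 hrs at 37 °C in Opti-MEM with 2% FBS; DMSO 0.5% final.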

[1] = measured here: GFP splicing reporter channel
[2] = measured here: RFP viability control channel

In the case of `CC/C(=N\NC(=O)CCC(=O)NCc1ccccc1)c1ccc(O)cc1`, the AC50 [1] is reported as 0.891 µM [falling, partial curve, poor fit].
For `FC(F)(F)c1cnc(NNC(=S)Nc2ccc(Cl)cc2)c(Cl)c1`, the AC50 [1] was 2.82 µM [rising, full curve, poor fit] and the AC50 [2] was 3.98 µM [rising, full curve].
In the case of `CC(C)(C)c1ccc(S(=O)(=O)N2CCN(CCC#N)CC2)cc1`, the AC50 [2] is reported as 10 µM [rising, partial curve, poor fit].
For `CCc1ccc(Nc2ccc(S(=O)(=O)N3CCOCC3)cc2[N+](=O)[O-])cc1`, the AC50 [1] was 10 µM [rising, partial curve] and the AC50 [2] was 15.8 µM [rising, partial curve].
In the case of `Cc1ccc(C(=O)CCC(=O)Nc2ccc(Cl)c(S(=O)(=O)Nc3cccc(Cl)c3)c2)cc1`, the AC50 [2] is reported as 8.91 µM [rising, partial curve, poor fit].
With `COc1ccc(CC2(C)OC(c3ccc(Cl)cc3)=NN2C(C)=O)cc1` (configuration not stated) the AC50 [1] was 35.5 µM [rising, single point] and the AC50 [2] was 31.6 µM [rising, single point].
In the case of `COc1ccc(OC)c(Nc2ncnc3c2cnn3-c2ccc(C)cc2)c1`, the AC50 [1] is reported as 0.00708 µM [falling, full curve, poor fit].
In the case of `NCCc1ccc(O)c(O)c1`, the AC50 [2] is reported as 5.62 µM [falling, single point].
In the case of `COc1cc(OC)cc(C(=O)Nc2ccc3c(c2)N(C2CCCC2)C(=O)c2ccccc2S3)c1`, the AC50 [1] is reported as 15.8 µM [falling, partial curve, poor fit] and the AC50 [2] is reported as 2.82 µM [rising, full curve].
In the case of `Cc1sc2c(c1C)C(=O)NC(c1cccc(O)c1)N2` (configuration not stated), the AC50 [2] is reported as 2.24 µM [falling, partial curve, poor fit].
With `O=C(NCc1ccc2c(c1)OCO2)C1CCN(S(=O)(=O)N2CCCCC2)CC1` the AC50 [1] was 20 µM [rising, partial curve, poor fit].
In the case of `CC(=O)c1cn(C)c(=O)[nH]c1=O`, the AC50 [1] is reported as 0.501 µM [falling, full curve, poor fit].
In the case of `FC(F)Sc1ccc(NC(=S)NCc2ccccc2)cc1`, the AC50 [2] is reported as 17.8 µM [rising, single point].
For `O=C(CSc1nnc(-c2cccnc2)n1Cc1ccco1)Nc1nc(-c2ccc(F)cc2)cs1`, the AC50 [1] was 22.4 µM [rising, single point] and the AC50 [2] was 17.8 µM [rising, single point].
In the case of `CCOc1ccc(-c2nnc(SCC(=O)NCc3ccccc3)nc2-c2ccc(OCC)c(OC)c2)cc1OC`, the AC50 [2] is reported as 0.224 µM [rising, partial curve, poor fit].
In the case of `O=C(C1=C(O)C(=O)N(CCCN2CCOCC2)C1c1ccccn1)c1cccs1` (configuration not stated), the AC50 [1] is reported as 5.62 µM [rising, partial curve] and the AC50 [2] is reported as 10 µM [rising, partial curve, poor fit].
For `COc1cc(C(=O)Nc2ccc(S(=O)(=O)N3CCCCC3C)cc2)cc(OC)c1OC` (configuration not stated), the AC50 [1] was 1.58 µM [falling, partial curve, poor fit].
With `CCC(=O)NCC(c1ccc2c(c1)OCO2)N1CCN(c2ccccc2)CC1` (configuration not stated) the AC50 [2] was 11.2 µM [falling, partial curve, poor fit].
For `O=C(CN1CCOCC1)N(c1ccccc1)c1ccc2ccccc2c1`, the AC50 [1] was 10 µM [rising, partial curve, poor fit] and the AC50 [2] was 15.8 µM [rising, partial curve, poor fit].
With `COc1ccc(-c2[nH]nc3nc(-c4cc(OC)c(OC)c(OC)c4)cc(C(=O)O)c23)cc1` the AC50 [2] was 12.6 µM [rising, partial curve].
For `O=C1C(Cc2ccc(F)cc2)SC(=Nc2ccccc2)N1c1ccccc1` (configuration not stated), the AC50 [2] was 10 µM [rising, partial curve].
For `Cn1c(SCCCC(=O)c2ccc(Br)cc2)nnc1-c1ccncc1`, the AC50 [1] was 35.5 µM [rising, single point] and the AC50 [2] was 35.5 µM [rising, single point].
For `COc1cccc(-n2c(N)c(C#N)c3ccc([N+](=O)[O-])cc3c2=O)c1`, the AC50 [2] was 7.94 µM [rising, partial curve, poor fit].
For `CCCS(=O)(=O)N1CCCC(C(=O)NCCCOC)C1` (configuration not stated), the AC50 [2] was 0.00316 µM [falling, full curve, poor fit].
With `C=CCSc1nc(-c2ccc(OC)cc2)c(C#N)c(=O)n1CC=C` the AC50 [2] was 7.08 µM [falling, single point].
In the case of `c1ccc(CNc2ncncc2-c2ccoc2)cc1`, the AC50 [1] is reported as 7.94 µM [falling, partial curve].
In the case of `CCN(CC)CCN(C(=O)c1ccc([N+](=O)[O-])cc1)c1nc2ccc(OC)cc2s1`, the AC50 [1] is reported as 0.0708 µM [rising, full curve, poor fit].
With `CCCCn1c(CN2CCN(c3ccccc3)CC2)nc2c1c(=O)n(C)c(=O)n2C` the AC50 [1] was 2.82 µM [rising, full curve] and the AC50 [2] was 3.16 µM [rising, full curve].
For `CCCN=C1CC(C)(C)CC(=O)/C1=C(/O)CCC`, the AC50 [2] was 0.0447 µM [falling, full curve, poor fit].
With `O=C(NNc1nc(-c2ccccc2)cs1)c1ccc(F)cc1` the AC50 [2] was 11.2 µM [rising, partial curve].
With `O=C(Nc1nc(-c2cc3ccccc3o2)cs1)c1ccc(S(=O)(=O)N2CCCC2)cc1` the AC50 [1] was 6.31 µM [rising, partial curve, poor fit] and the AC50 [2] was 3.98 µM [rising, partial curve].
In the case of `Cc1ccc(-c2cc(C(=O)N3CCN(S(=O)(=O)c4ccc(Br)cc4)CC3)[nH]n2)cc1C`, the AC50 [2] is reported as 28.2 µM [falling, partial curve].
For `CC(=O)NCCNc1ncnc2ccc(-c3c(C)noc3C)cc12`, the AC50 [1] was 11.2 µM [falling, partial curve].
For `O=C(Nc1cnn(Cc2ccc(Cl)c(Cl)c2)c1)c1nc2ncccn2n1`, the AC50 [1] was 35.5 µM [rising, single point] and the AC50 [2] was 31.6 µM [rising, single point].
In the case of `Cc1ccc(Nc2nnc(C)c(=O)[nH]2)cc1`, the AC50 [1] is reported as 0.794 µM [rising, full curve] and the AC50 [2] is reported as 1.58 µM [rising, partial curve].
